In assay [1] the target is T1, Protein tyrosine phosphatase non-receptor type 14 (PTPN14) (human (endogenous in HepG2)) (UniProt Q15678).
T1 sequence: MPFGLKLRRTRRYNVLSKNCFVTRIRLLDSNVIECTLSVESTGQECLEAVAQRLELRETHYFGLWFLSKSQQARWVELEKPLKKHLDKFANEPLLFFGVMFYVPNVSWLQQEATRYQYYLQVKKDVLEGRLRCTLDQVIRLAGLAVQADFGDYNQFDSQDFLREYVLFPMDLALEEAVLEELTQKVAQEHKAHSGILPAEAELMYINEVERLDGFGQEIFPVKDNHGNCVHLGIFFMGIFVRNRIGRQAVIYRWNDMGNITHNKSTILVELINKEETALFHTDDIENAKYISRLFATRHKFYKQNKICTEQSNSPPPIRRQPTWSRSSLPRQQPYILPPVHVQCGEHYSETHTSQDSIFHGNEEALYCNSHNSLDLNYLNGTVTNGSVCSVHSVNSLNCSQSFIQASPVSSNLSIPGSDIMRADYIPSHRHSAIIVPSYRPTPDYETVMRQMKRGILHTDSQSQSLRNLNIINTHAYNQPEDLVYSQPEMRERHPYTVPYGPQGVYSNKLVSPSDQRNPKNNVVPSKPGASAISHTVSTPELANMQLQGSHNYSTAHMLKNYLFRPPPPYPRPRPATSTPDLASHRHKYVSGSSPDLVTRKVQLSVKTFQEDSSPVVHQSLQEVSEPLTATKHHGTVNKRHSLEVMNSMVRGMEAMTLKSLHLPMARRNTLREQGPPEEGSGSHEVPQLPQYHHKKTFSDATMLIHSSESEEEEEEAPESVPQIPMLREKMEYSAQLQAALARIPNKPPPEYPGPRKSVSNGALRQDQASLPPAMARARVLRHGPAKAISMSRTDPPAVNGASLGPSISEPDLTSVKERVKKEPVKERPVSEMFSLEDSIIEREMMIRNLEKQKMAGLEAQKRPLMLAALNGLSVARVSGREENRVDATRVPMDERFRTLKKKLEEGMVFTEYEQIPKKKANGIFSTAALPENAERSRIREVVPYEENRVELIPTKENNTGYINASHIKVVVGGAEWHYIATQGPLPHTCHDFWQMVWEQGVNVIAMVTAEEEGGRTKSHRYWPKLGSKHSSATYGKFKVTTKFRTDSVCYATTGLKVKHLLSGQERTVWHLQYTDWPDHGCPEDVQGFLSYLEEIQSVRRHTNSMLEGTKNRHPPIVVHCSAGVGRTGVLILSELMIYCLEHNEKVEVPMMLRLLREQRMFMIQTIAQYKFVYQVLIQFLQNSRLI
The assay is described as follows: co-IP; total lysate of HepG2 cells without hypoxia (0 h); precipitated with PTPN14 antibody overnight, protein-G or protein-A sepharose, washed five times in PBS; blotted for NPM1 and PTPN14.

Protein sequences, listed by entry. Tags and fused reporters are not part of them.
UniProt P06748: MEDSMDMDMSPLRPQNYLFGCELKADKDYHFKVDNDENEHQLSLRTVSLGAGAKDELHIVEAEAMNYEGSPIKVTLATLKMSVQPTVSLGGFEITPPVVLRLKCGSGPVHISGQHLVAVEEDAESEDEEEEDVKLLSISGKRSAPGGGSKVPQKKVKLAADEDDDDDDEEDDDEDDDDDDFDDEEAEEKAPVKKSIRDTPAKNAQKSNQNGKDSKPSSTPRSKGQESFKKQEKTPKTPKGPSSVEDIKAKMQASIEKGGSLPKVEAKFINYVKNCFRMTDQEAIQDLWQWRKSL

For assay [2], the target named is T1, Protein tyrosine phosphatase non-receptor type 14 (PTPN14) (human (endogenous in HepG2)). Put plainly: co-IP; total lysate of HepG2 cells after hypoxia (2% O2) for 24 h; precipitated with PTPN14 antibody overnight, protein-G or protein-A sepharose, washed five times in PBS; blotted for NPM1 and PTPN14.

Results are given in words; binding and its absence hold for the method and conditions named. In cells and extracts the contact can be indirect. Some binding calls cover weakened binding; strength is not graded here.

Regarding “Nucleophosmin (NPM1/B23) (from UniProt P06748 1-294)”, the binding result is reported as “no binding (condition: without hypoxia (0 h))” in assay [1] and “binds” in assay [2].
